In the supplement of paper PMC10849652:
The other results are listed elsewhere or left out.

By UniProt entry, the sequences of proteins in these tests, tags left out. Where a name states a change or a piece, a line headed by the entry shows the natural chain unless it says otherwise.
UniProt P52747: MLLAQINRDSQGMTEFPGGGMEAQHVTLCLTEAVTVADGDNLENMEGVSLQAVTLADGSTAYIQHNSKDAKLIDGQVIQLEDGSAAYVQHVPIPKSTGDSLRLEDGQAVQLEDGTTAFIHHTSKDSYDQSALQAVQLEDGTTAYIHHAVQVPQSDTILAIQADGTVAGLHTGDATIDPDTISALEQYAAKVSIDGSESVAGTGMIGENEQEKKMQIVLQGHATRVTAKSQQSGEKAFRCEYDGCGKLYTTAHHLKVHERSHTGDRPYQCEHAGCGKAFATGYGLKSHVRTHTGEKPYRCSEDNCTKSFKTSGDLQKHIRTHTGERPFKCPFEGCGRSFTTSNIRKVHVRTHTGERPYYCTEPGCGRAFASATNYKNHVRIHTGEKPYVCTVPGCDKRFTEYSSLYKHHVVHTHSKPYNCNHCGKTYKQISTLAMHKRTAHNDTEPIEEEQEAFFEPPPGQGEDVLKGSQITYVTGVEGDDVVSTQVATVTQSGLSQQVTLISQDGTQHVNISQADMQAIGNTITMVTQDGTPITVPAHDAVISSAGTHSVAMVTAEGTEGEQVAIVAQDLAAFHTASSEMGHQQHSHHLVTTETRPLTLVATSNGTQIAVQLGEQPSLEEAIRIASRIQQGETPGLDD
UniProt O60232: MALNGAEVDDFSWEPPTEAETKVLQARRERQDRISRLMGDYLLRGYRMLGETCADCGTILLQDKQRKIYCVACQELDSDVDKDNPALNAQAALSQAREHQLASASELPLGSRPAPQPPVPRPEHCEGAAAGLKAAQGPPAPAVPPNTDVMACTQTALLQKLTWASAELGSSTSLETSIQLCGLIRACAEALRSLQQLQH
UniProt Q9Y5V0: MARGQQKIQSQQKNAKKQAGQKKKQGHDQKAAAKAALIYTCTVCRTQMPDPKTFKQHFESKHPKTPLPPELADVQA
UniProt Q96NC0: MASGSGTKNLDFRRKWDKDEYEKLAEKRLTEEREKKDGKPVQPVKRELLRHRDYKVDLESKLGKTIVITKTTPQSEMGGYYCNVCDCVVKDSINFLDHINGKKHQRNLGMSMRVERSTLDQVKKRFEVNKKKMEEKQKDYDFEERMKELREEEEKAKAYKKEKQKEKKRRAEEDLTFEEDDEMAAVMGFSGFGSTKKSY
UniProt O43149: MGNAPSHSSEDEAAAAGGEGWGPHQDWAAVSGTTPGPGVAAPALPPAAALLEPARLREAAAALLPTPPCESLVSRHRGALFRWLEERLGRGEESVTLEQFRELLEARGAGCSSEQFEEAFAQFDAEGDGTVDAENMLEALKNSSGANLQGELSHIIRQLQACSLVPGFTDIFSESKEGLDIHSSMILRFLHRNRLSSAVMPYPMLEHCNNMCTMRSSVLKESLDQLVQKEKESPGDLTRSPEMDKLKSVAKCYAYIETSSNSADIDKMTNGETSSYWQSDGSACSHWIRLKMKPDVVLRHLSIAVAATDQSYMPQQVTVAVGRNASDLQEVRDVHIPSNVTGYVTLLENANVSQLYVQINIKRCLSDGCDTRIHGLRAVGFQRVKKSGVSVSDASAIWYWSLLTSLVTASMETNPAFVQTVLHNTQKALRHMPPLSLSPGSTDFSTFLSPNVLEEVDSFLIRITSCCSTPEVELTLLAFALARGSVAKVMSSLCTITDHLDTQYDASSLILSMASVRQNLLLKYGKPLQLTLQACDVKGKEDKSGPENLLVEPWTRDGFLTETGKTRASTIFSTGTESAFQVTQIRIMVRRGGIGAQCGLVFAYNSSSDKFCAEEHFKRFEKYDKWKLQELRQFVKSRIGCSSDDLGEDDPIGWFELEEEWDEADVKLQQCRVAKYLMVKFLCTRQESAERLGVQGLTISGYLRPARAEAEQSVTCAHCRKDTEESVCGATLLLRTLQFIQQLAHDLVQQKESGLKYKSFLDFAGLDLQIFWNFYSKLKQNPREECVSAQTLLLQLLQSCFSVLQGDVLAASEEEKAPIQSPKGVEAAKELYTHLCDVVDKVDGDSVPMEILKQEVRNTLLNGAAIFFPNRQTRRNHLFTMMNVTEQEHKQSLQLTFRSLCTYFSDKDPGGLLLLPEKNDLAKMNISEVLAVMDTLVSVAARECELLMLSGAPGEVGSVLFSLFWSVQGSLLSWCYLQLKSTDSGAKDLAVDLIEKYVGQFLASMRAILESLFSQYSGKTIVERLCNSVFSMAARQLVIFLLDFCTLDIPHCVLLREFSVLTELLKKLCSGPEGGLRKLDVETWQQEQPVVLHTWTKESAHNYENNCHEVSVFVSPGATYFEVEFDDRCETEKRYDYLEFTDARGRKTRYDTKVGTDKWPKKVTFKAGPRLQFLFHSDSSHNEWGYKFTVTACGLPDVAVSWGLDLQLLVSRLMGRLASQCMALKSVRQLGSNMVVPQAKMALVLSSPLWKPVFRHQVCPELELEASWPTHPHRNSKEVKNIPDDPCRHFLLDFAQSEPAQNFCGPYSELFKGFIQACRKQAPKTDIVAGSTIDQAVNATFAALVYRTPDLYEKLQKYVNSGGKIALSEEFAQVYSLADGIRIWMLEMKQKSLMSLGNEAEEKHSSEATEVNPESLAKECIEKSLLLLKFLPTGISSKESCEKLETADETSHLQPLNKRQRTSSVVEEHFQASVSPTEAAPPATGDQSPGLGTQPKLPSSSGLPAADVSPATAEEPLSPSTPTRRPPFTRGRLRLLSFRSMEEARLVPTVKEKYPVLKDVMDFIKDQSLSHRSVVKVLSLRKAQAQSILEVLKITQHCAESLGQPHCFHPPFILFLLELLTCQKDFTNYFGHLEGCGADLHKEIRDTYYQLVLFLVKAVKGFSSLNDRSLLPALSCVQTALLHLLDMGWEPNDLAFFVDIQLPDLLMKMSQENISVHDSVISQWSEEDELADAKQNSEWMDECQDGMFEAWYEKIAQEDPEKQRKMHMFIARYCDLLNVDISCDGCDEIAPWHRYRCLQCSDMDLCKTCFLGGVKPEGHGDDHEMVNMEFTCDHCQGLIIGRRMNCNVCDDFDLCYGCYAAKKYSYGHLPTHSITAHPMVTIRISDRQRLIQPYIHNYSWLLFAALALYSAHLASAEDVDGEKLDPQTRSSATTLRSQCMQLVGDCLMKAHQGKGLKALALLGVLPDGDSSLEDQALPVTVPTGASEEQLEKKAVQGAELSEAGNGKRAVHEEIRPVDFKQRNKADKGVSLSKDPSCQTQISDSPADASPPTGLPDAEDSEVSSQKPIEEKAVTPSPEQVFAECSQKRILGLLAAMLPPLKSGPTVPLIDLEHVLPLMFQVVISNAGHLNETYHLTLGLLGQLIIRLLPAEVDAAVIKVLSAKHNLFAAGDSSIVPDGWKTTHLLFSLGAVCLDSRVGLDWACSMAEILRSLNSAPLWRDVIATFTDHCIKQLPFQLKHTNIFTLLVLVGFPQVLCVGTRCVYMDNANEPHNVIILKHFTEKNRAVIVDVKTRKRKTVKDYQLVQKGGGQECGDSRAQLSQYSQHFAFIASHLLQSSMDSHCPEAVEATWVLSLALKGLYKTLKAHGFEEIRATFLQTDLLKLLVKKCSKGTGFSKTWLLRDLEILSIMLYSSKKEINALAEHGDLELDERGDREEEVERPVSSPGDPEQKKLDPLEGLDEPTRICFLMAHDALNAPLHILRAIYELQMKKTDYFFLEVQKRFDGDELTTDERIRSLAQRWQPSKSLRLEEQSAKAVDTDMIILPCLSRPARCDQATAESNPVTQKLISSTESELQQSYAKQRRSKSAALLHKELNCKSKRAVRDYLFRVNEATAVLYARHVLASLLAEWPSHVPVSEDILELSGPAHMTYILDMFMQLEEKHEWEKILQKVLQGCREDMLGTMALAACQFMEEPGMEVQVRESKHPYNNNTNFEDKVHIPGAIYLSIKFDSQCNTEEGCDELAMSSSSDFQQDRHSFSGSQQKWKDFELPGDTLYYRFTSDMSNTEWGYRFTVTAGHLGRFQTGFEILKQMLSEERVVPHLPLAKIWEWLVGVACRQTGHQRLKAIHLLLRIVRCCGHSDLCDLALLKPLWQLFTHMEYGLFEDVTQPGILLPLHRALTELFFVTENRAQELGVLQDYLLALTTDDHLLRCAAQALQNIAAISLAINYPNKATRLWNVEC
UniProt Q8NF64: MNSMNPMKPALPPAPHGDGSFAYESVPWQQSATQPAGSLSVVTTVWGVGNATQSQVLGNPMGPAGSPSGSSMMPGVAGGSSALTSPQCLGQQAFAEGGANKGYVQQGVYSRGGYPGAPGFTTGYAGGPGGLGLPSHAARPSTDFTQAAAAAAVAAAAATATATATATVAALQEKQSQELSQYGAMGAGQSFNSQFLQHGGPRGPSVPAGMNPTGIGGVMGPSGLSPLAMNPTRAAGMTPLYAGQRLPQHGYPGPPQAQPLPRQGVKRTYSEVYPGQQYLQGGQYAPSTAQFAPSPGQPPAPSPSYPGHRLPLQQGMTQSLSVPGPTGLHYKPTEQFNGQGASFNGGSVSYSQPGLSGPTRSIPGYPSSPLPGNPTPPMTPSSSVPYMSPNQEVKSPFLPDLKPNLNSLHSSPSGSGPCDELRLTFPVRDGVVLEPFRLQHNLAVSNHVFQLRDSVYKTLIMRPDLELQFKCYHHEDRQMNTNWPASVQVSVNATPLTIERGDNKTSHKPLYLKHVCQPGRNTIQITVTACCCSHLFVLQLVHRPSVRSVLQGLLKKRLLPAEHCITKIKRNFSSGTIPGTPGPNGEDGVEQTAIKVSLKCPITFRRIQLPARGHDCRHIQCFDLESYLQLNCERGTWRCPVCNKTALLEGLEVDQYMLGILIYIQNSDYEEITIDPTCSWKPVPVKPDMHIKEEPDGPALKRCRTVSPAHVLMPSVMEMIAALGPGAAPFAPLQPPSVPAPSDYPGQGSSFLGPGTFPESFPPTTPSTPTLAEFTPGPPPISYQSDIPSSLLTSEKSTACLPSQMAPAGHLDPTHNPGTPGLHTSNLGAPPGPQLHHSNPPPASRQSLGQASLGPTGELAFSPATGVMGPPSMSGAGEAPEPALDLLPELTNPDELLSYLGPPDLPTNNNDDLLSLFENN
UniProt Q96IR2: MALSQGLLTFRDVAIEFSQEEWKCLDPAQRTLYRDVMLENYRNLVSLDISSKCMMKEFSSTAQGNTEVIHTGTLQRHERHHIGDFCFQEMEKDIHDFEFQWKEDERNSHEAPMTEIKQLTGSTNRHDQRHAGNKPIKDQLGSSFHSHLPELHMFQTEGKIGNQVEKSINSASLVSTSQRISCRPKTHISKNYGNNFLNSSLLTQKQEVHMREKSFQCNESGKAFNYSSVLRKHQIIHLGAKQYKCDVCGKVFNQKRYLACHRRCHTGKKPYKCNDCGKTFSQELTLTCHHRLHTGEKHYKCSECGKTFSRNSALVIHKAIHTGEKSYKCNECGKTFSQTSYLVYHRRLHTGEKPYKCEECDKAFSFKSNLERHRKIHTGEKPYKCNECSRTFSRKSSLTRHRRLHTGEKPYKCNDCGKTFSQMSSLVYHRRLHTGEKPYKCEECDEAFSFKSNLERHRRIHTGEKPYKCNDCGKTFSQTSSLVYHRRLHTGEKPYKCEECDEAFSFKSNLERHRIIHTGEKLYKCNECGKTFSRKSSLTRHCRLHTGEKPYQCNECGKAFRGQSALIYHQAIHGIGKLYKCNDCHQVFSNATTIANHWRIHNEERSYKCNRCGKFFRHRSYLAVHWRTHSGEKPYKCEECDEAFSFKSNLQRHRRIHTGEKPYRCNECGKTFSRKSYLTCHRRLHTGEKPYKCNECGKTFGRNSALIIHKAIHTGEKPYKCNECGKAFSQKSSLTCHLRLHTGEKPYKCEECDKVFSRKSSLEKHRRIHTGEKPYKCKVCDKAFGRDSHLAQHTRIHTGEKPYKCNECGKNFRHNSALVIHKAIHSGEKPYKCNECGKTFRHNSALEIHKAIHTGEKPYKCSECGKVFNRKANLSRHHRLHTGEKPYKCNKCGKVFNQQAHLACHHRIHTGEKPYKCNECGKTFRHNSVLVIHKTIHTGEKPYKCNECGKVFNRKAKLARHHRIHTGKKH
UniProt Q9NWK9: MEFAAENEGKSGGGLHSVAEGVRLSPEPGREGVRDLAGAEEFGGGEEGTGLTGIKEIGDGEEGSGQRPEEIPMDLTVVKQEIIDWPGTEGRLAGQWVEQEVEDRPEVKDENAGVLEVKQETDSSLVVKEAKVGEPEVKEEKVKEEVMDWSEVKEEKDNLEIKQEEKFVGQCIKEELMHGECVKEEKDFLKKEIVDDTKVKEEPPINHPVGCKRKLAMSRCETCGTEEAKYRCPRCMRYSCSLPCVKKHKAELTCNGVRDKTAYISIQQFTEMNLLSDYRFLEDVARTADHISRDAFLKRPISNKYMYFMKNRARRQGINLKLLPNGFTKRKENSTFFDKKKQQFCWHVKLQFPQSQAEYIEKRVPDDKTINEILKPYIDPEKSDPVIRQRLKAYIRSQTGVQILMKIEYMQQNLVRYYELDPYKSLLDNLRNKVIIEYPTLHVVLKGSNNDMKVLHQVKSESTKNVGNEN

Compound: Cc1cn(-c2cc(NC(=O)c3ccc(C)c(Nc4nccc(-c5cccnc5)n4)c3)cc(C(F)(F)F)c2)cn1 [nilotinib]
Test: log2 fold change, soluble protein after heating vs DMSO (PISA); higher = thermal stabilisation; K562 lysate, 10 uM; active = over 0.2 and 3.5 SD of the protein, either way, in both replicates (recomputed)
Summary of the method: (§1)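 Soluble protein was defined as the supernatant remaining after 21,000xg for 90 min, following pooling of heated aliquots and adjustment to 0.5% NP-40 at 4°C. Before that, crude K562 extract at 1 mg/mL protein in PBS pH 7.4 with 1 mM MgCl2 was treated with 10 μM compound for 30 min and heated for 3 min across 48°C-58°C. Quantification used TMTpro 16plex LC-MS/MS with channel sums equalised, and values are log-two fold changes in thermal stability relative to solvent controls from duplicates.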

log2 fold change, inactive:
ZNF280A (UniProt P59817) 0.181
ZZZ3 (UniProt Q8IYH5) 0.067
ZNF143 (UniProt P52747) -0.09
ZNRD2 (UniProt O60232) 0.052
ZNF706 (UniProt Q9Y5V0) -0.01
ZMAT2 (UniProt Q96NC0) -0.014
ZNRD2 (UniProt G3V1B8) 0.115
ZNF148 (UniProt Q9UQR1) -0.203
ZWILCH (UniProt Q9H900) 0.029
ZNF638 (UniProt Q14966) 0.035
ZMYND8 isoform 19 (UniProt Q9ULU4) -0.011
ZNF622 (UniProt Q969S3) 0.011
ZNF787 (UniProt Q6DD87) -0.028
ZNF639 (UniProt Q9UID6) -0.071
hCG_1984214 (UniProt I3L0E3) -0.035
ZZEF1 (UniProt O43149) -0.022
ZKSCAN8 (UniProt Q15776) 0.05
ZMIZ1 (UniProt Q9ULJ6) -0.018
ZMIZ2 (UniProt Q8NF64) 0.06
ZNF24 (UniProt P17028) 0.036
ZNF672 (UniProt Q499Z4) -0.038
ZNF609 (UniProt O15014) -0.14
ZNF511 (UniProt Q8NB15) 0.105
ZNF207 isoform 4 (UniProt O43670) 0.009
ZNF8 (UniProt P17098) -0.119
ZSWIM8 isoform 4 (UniProt A7E2V4) -0.009
ZNF845 (UniProt Q96IR2) 0
ZNF644 (UniProt Q9H582) -0.062
ZNF618 (UniProt Q5T7W0) 0.039
ZHX1 (UniProt Q9UKY1) 0.011
ZNHIT6 (UniProt Q9NWK9) -0.023
ZMYM4 (UniProt Q5VZL5) -0.016
ZMYM2 (UniProt Q9UBW7) -0.04
ZMYM3 (UniProt Q14202) 0
ZNF318 (UniProt Q5VUA4) 0.043

Compound: Cc1nc(Nc2n[nH]c3c2CN(C(=O)N[C@H](CN(C)C)c2ccccc2)C3(C)C)c2sccc2n1
Test: as above
Summary of the method: as §1

log2 fold change, inactive:
ZNF280A (UniProt P59817) -0.074
ZZZ3 (UniProt Q8IYH5) 0.027
ZNF143 (UniProt P52747) 0.044
ZNRD2 (UniProt O60232) -0.016
ZNF706 (UniProt Q9Y5V0) -0.005
ZMAT2 (UniProt Q96NC0) 0.037
ZNRD2 (UniProt G3V1B8) -0.064
ZNF148 (UniProt Q9UQR1) -0.033
ZWILCH (UniProt Q9H900) 0.008
ZNF638 (UniProt Q14966) -0.025
ZMYND8 isoform 19 (UniProt Q9ULU4) -0.056
ZNF622 (UniProt Q969S3) -0.032
ZNF787 (UniProt Q6DD87) 0.113
ZNF639 (UniProt Q9UID6) 0.131
hCG_1984214 (UniProt I3L0E3) 0.029
ZZEF1 (UniProt O43149) 0
ZKSCAN8 (UniProt Q15776) 0.015
ZMIZ1 (UniProt Q9ULJ6) 0.018
ZMIZ2 (UniProt Q8NF64) -0.018
ZNF24 (UniProt P17028) -0.144
ZNF672 (UniProt Q499Z4) 0.031
ZNF609 (UniProt O15014) -0.023
ZNF511 (UniProt Q8NB15) 0.01
ZNF207 isoform 4 (UniProt O43670) 0.058
ZNF8 (UniProt P17098) -0.228
ZSWIM8 isoform 4 (UniProt A7E2V4) 0.129
ZNF845 (UniProt Q96IR2) 0.087
ZNF644 (UniProt Q9H582) 0.153
ZNF618 (UniProt Q5T7W0) 0.15
ZHX1 (UniProt Q9UKY1) -0.012
ZNHIT6 (UniProt Q9NWK9) 0
ZMYM4 (UniProt Q5VZL5) 0.003
ZMYM2 (UniProt Q9UBW7) 0.001
ZMYM3 (UniProt Q14202) -0.06
ZNF318 (UniProt Q5VUA4) -0.05
